# According to patent US20260232767A1, “INTERLEUKIN-23 RECEPTOR ANTAGONIST PEPTIDES FOR USE IN THE TREATMENT OF PSORIASIS” (Janssen Pharmaceutica NV, priority 2023, published 2026):
# The source gives many values for each of these; only a part stands here.
# What was measured:
# [1] = tested on: subjects with moderate-to-severe plaque psoriasis; assay: PASI response, Example 1 16-week dose-ranging study; format: in vivo, human; settings: Week 16
# Method: The Psoriasis Area and Severity Index (PASI) is a system used for assessing and grading the severity of psoriatic lesions and their response to therapy. In the PASI system, the body is divided into four regions: the head, trunk, upper extremities, and lower extremities. Each of these areas is assessed and scored separately for erythema, induration, and scaling, which are each rated on a scale of 0 to 4 and extent of involvement on a scale of 0 to 6. The PASI produces a numeric score (a “PASI score”) that can range from 0 to 72. A higher score indicates more severe disease.
# This was a randomized, double-blind, placebo-controlled, dose-ranging, parallel group, multicenter, interventional study in subjects with moderate-to-severe plaque psoriasis. A target of 240 subjects were enrolled in this study with 40 subjects planned per intervention group.
# Clinician-reported outcomes including Psoriasis Area and Severity Index (PASI), Body Surface Area (BSA), Investigator's Global Assessment (IGA), Nail Psoriasis Area and Severity Index (NAPSI), Fingernail Physician's Global Assessment (f-PGA), Static Physician's Global Assessment of Genitalia (s-PGA-G), Physician's Global Assessment of Hands and/or Feet (hf-PGA), and Scalp Specific Investigator Global Assessment (ss-IGA) were obtained at Week 0, 8, and 16. PASI and IGA were also obtained at Weeks 1, 2, 4, and 12, and at Week 20, four weeks after the administration of the tablets has stopped.
# The primary efficacy endpoint was the proportion of participants achieving a PASI 75 response at Week 16, defined as at least a 75% reduction from baseline in PASI total score.
# For the primary analysis, composite strategy (non-responder imputation) was applied to address intercurrent event #1 (Discontinuation of study intervention due to lack of efficacy or due to an AE of worsening of psoriasis) and #2 (initiation of a protocol-prohibited medication or therapy that could improve psoriasis); and treatment policy strategy (observed data) was applied to intercurrent event #3 (Discontinuation of study intervention due to other reasons). Participants with missing data after application of ICEs are also considered as non-responders.
# In addition to the response analysis, pairwise comparisons of each treatment group versus the placebo group were performed for the primary endpoint of PASI 75 at Week 16. Pairwise comparisons were not adjusted for multiplicity. The Cochran-Mantel-Haenszel chi-square statistic stratified by baseline weight category (≤90 kg, >90 kg) at a 2-sided significance level of 0.05 was used (Table 2).
# [2] = tested on: subjects with moderate-to-severe plaque psoriasis; assay: PASI response, Example 2 long-term extension to Week 52; format: in vivo, human; settings: 100 mg BID, N=42
# Source text: Described below is a multicenter, long-term extension (LTE), double-blind, dose-ranging, parallel group interventional study in participants from Example 1 to evaluate the long-term efficacy and safety of the hydrochloride salt of the compound of Formula (I) for the treatment of moderate-to-severe plaque psoriasis. Patients from Example 1 continued to receive the same dose of the compound of Formula (I) for an additional 36-week treatment period with a 4-week safety follow up period after the last administration of the compound of Formula (I). Patients randomized to placebo in Example 1 received the compound of Formula (I) at a dose of 100 mg QD starting at Week 16 of Example 1 (FIG. 21).
# The primary efficacy endpoint is the proportion of participants achieving a PASI 75 response at Week 52, defined as at least a […] reduction from baseline PASI of Example 1. For primary analysis, composite strategy (non-responder imputation) was applied to address intercurrent event #1 (Discontinuation of study intervention due to lack of efficacy or due to an AE of worsening of psoriasis) and […] (initiation of a protocol-prohibited medication or therapy that could improve psoriasis); treatment policy strategy (observed data) was applied to intercurrent event #3 (Discontinuation of study intervention due to other reasons). […]
smiles,measurement,setting,value
"CC(=O)NCCCC[C@@H]1NC(=O)[C@H](Cc2c[nH]c3c(C)cccc23)NC(=O)[C@H]([C@@H](C)O)NC(=O)[C@H](CC(N)=O)NC(=O)[C@@H](NC(C)=O)C(C)(C)SSC(C)(C)[C@@H](C(=O)N[C@@H](Cc2ccc(OCCN)cc2)C(=O)N[C@@H](Cc2ccc3ccccc3c2)C(=O)NC2(C(=O)N[C@@H](CCC(=O)O)C(=O)N[C@@H](CC(N)=O)C(=O)N[C@@H](Cc3cccnc3)C(=O)N(C)CC(N)=O)CCOCC2)NC1=O [IL-23 receptor antagonist peptide, Ac-[Pen]*-N-T-[W(7-Me)]-[Lys(Ac)]-[Pen]*-Phe[4-(2-aminoethoxy)]-[2-Nal]-[THP]-E-N-[3-Pal]-Sarc-NH2 (*[Pen]-[Pen]* formdisulfidebond)]","PASI ≥75% Improvement, % subjects","[1]; 100 mg BID, peak plasma conc. <Q1, N=2",(100.0%)
same,"PASI ≥75% Improvement, % subjects","[1]; 100 mg BID, peak plasma conc. Q1 to <Q2, N=3",(100.0%)
same,"PASI ≥75% Improvement, % subjects","[1]; 100 mg BID, peak plasma conc. Q2 to <Q3, N=2",(50.0%)
same,"PASI ≥75% Improvement, % subjects","[1]; 100 mg BID, peak plasma conc. ≥Q3, N=3",(100.0%)
same,"PASI ≥75% Improvement, % subjects","[1]; 100 mg QD, peak plasma conc. ≥Q3, N=2",(50.0%)
same,"PASI ≥75% Improvement, % subjects","[1]; Combined doses, peak plasma conc. <Q1, N=10",(40.0%)
same,"PASI ≥75% Improvement, % subjects","[1]; Combined doses, peak plasma conc. Q1 to <Q2, N=11",(90.9%)
same,"PASI ≥75% Improvement, % subjects","[1]; Combined doses, peak plasma conc. Q2 to <Q3, N=10",(70.0%)
same,"PASI ≥75% Improvement, % subjects","[1]; Combined doses, peak plasma conc. ≥Q3, N=11",(72.7%)
same,"PASI ≥90% Improvement, subjects (%)",[2],(64.3%)
